Laboratory results taken from PubChem BioAssay AID624256 (NMMLSC, 2012).
Some of the results follow. Some tests of the compounds listed are not included; inactive here does not mean inactive elsewhere.

assay: HoxA9-arrested leukemia cell differentiation promoters – flow cytometry, MLPCN library, primary screen (AID 624256); conditions: ER-HoxA9 myeloid progenitors, lysozyme-GFP differentiation, measured here: differentiation confirmed by MAC1 staining, at 10 µM, stronger effect = higher value;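 also: cells exposed to compound for four days before flow analysis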

SMILES	GFP+ MAC1+ double positive
O=C(OC1CN2CCC1CC2)C(CO)(c1ccccc1)c1ccccc1 (centres undefined)	1.1%
C=C(C)C#CC(O)(C(=O)OC1CCN(C)CC1)c1ccccc1 (centres undefined)	0.8%
COc1ccc(Br)c(C(=O)NCC2(N3CCCCC3)CCCCC2)c1	0.4%
CC(C)Oc1ccc(C(=O)NCC2(N(C)C)CCCCC2)cc1	0.5%
O=C(OCCN1CCCC1)C(O)(c1ccccc1)c1ccccc1	1.8%
CN(C)c1cccc(C(=O)NCC2(N(C)C)CCCCC2)c1	0.3%
CN(C)C1(CNC(=O)c2ccc(Br)cc2)CCCCC1	0.5%
COc1cc(C(=O)NCC2(N(C)C)CCCCC2)c([N+](=O)[O-])cc1OC	0.8%
COc1cccc(C(=O)NCC2(N3CCCCC3)CCCCC2)c1	0.1%
COc1ccc(Cl)cc1C(=O)NCC1(N(C)C)CCCCC1	0.7%
O=C(NCC1(N2CCCCC2)CCCCC1)c1cccc(Cl)c1	4.8%
Cc1ccccc1C(=O)NCC1(N2CCCCC2)CCCCC1	0.1%
CN(C)c1ccc(C(=O)NCC2(N(C)C)CCCCC2)cc1	0.3%
CN(C)C1CCCC1OC(=O)C(O)(c1ccccc1)c1ccccc1 (centres undefined)	0.1%
C=CCN1CCN(CCOC(=O)C(O)(c2ccccc2)c2ccccc2)CC1	0.4%
O=C(NCC1(N2CCCCC2)CCCCC1)c1cc(F)c(F)cc1Cl	1.9%
COc1ccc(C(=O)NCC2(N(C)C)CCCCC2)cc1	0.2%
CCN1CCCC(OC(=O)C2(O)c3ccccc3C=Cc3ccccc32)C1 (centres undefined)	1%
Cc1cc(C(=O)NCC2(N3CCCCC3)CCCCC2)ccc1[N+](=O)[O-]	0.5%
O=C(NCC1(N2CCCCC2)CCCCC1)c1cc([N+](=O)[O-])ccc1Cl	0.1%
CN1[C@@H]2CC[C@H]1CC(OC(=O)C(O)(c1ccccc1)c1ccccc1)C2 (some centres undefined)	0.4%
CCN(CC)CC(C)C(C)OC(=O)C(O)(c1ccccc1)c1ccccc1 (centres undefined)	1.7%
COc1cc(SC)ccc1C(=O)NCC1(N(C)C)CCCCC1	0.7%
Cc1ccc(C(=O)NCC2(N3CCCCC3)CCCCC2)cc1	2.7%
